This is one part of the list. These are further read-outs of the screen, such as a control signal, another cell line or another target. No call is given for them. The list favours compounds with an active or inconclusive main result. Potencies come from curve fits of mixed quality, noted in brackets.
Assay: qHTS Assay for Modulators of Lamin A Splicing
Conditions: HeLa LMNA splicing GFP/RFP minigene ratio, 48 h
Summary of the method: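 S3 HeLa stable clones carrying a lamin A-EGFP splicing minigene plus DsRed2 were seeded at 600 cells/well in Opti-MEM with 2% FBS, pin-dosed and incubated 48 h at 37°C. Acumen cytometry (488 nm) gave the GFP/RFP total-intensity ratio.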

[1] = measured here: GFP splicing reporter channel
[2] = measured here: RFP viability control channel

Row | Compound | AC50 [1] | AC50 [2]
1 | O=C(NCC1CCCO1)C(=Cc1cccc([N+](=O)[O-])c1)C(=O)NCC1CCCO1 (stereo unspecified) | 1.41 µM [rising, full curve, poor fit] | 14.1 µM [rising, partial curve]
2 | CCOC(=O)Cc1csc(SCn2nnc3ccccc3c2=O)n1 |  | 2.82 µM [rising, partial curve]
3 | CC(=O)Nc1cc(C(=O)N(C)Cc2ccco2)ccc1Sc1ccc(Cl)cc1 |  | 35.5 µM [rising, single point]
4 | COc1ccccc1C(=O)Nc1nc(-c2ccc3c(c2)OCCO3)cs1 | 1.26 µM [rising, partial curve] | 
5 | CCN1CCN(c2cc(SC(C)C)nc(-c3ccc(OC)cc3)n2)CC1 | 35.5 µM [falling, single point] | 35.5 µM [falling, single point]
6 | Cc1[nH]n2c(=O)cc(C(C)C)nc2c1-c1ccccc1 | 35.5 µM [rising, single point] | 35.5 µM [rising, single point]
7 | Cc1cc(Cl)ccc1NC(=O)CCS(=O)(=O)c1cc2c(cc1C)NC(=O)CO2 |  | 0.891 µM [falling, single point]
8 | Cc1ccc2[nH]cc(CCCN3C(=O)c4ccccc4C3=O)c2c1 |  | 22.4 µM [rising, partial curve, poor fit]
9 | O=C(CSc1ncnc2scc(-c3ccc(F)cc3)c12)c1ccc2c(c1)OCCO2 | 2 µM [rising, single point] | 11.2 µM [rising, partial curve]
10 | Cc1ccc(NC2=CC(=O)C(=O)c3ccccc32)cc1 | 35.5 µM [falling, single point] | 35.5 µM [falling, single point]
11 | Fc1ccccc1Cn1nnc2c(-n3ccnc3)ncnc21 | 14.1 µM [rising, single point] | 5.01 µM [rising, partial curve]
12 | CNc1ncc(Cc2ccccc2)s1 |  | 0.0158 µM [rising, full curve, poor fit]
13 | COc1ccc(-c2[nH]ncc2/C=N\NS(=O)(=O)c2ccc(Cl)cc2)cc1 |  | 17.8 µM [rising, single point]
14 | O=C(CSc1ccc(Br)cc1)Nc1ccccc1Oc1ccccc1 | 0.0178 µM [falling, full curve, poor fit] | 2.24 µM [falling, partial curve]
15 | CS(=O)(=O)c1sc(C#N)c2c1C(=O)CC(c1ccccc1)C2 (stereo unspecified) | 7.94 µM [falling, partial curve] | 7.94 µM [falling, partial curve]
16 | O=C(CN1CCC(O)(c2ccccc2)CC1)Nc1ccc2c(c1)OCCO2 | 0.00282 µM [falling, full curve, poor fit] | 
17 | O=c1cc(-c2ccccc2Cl)oc2cc(O)cc(O)c12 | 0.0891 µM [falling, full curve, poor fit] | 
18 | COc1ccccc1NC(=S)N(CCCN1CCOCC1)Cc1cn(C)c2ccccc12 | 14.1 µM [rising, single point] | 22.4 µM [rising, single point]
19 | CCOC(=O)c1c(NC(=S)NCCc2ccccc2)sc2c1CC(C(C)C)OC2 (stereo unspecified) |  | 5.62 µM [rising, single point]
20 | CCCOc1cccc(OCC(=O)Nc2nc3ccccc3[nH]2)c1 | 20 µM [rising, single point] | 
21 | COc1ccc(NC(=O)CSc2nc3ccsc3c(=O)n2CCCCCC(=O)O)cc1 | 2.24 µM [rising, partial curve, poor fit] | 
22 | Cc1ccc(N(CN2CCCC2=O)C(=O)c2ccccc2)cc1 | 4.47 µM [falling, single point] | 
23 | CN1CCC(N(C)C(=S)Nc2ccc(SC(F)F)cc2)CC1 | 12.6 µM [rising, single point] | 12.6 µM [rising, partial curve]
24 | CCn1c(SCc2nc3ccccc3nc2C)nnc1-c1cccs1 |  | 35.5 µM [rising, single point]
25 | O=C(NO)c1ccccc1C(F)(F)F | 35.5 µM [falling, single point] | 35.5 µM [falling, single point]
26 | Cc1cc(S(=O)(=O)Nc2cccc(-c3ccc(N4CCOCC4)nn3)c2)c(C)cc1Cl | 0.0158 µM [falling, full curve, poor fit] | 
27 | CC1CC(C)CN(C(=S)Nc2ccc(OC(F)F)cc2)C1 (stereo unspecified) | 20 µM [rising, single point] | 25.1 µM [rising, partial curve]
28 | CC(=O)Nc1ccc(OCC(O)Cn2ccnc2)cc1 (stereo unspecified) | 0.02 µM [rising, full curve, poor fit] | 

Looked up above:
Cc1cc(S(=O)(=O)Nc2cccc(-c3ccc(N4CCOCC4)nn3)c2)c(C)cc1Cl – AC50 [1]: 0.0158 µM [falling, full curve, poor fit]
COc1ccc(NC(=O)CSc2nc3ccsc3c(=O)n2CCCCCC(=O)O)cc1 – AC50 [1]: 2.24 µM [rising, partial curve, poor fit]
CCn1c(SCc2nc3ccccc3nc2C)nnc1-c1cccs1 – AC50 [2]: 35.5 µM [rising, single point]

Later entries.

Row | Compound | AC50 [1] | AC50 [2]
29 | CCCC1O[C@@H]2C[C@H]3[C@@H]4CCC5=CC(=O)C=C[C@]5(C)[C@H]4[C@@H](O)C[C@]3(C)[C@]2(C(=O)CO)O1 (stereo partly specified) | 10 µM [rising, partial curve, poor fit] | 
30 | Cc1ccc(C)c(CN2C(=O)c3ccccc3Sc3ccc(C(=O)NCc4ccco4)cc32)c1 | 1.26 µM [falling, partial curve, poor fit] | 
31 | COc1ccc2c(c1)c(=O)c(C(=O)c1ccccc1)cn2Cc1ccc(C)cc1 |  | 12.6 µM [rising, single point]
32 | Cc1ccc(/C=C/C(=O)c2c(C)nc3ccccn23)cc1 | 11.2 µM [falling, partial curve] | 35.5 µM [falling, single point]
33 | COC(=O)CCCC1=CC2=C(c3ccccc3)C(=O)C(C)(OC(=O)C3CCCC3)C(=O)C2=CN1CC(C)C (stereo unspecified) | 2 µM [rising, partial curve] | 5.62 µM [rising, single point]
34 | Cc1noc(NS(=O)(=O)c2ccc(N/C=C\C(=O)c3ccc(Br)cc3)cc2)c1C |  | 0.0224 µM [falling, full curve, poor fit]
35 | CCN1CCN(S(=O)(=O)c2ccc(Oc3ccccc3OC)cc2)CC1 |  | 0.00316 µM [rising, full curve]
36 | CCN(Cc1ccccc1)C(=O)Cn1c(=O)oc2ccccc21 | 0.178 µM [rising, full curve, poor fit] | 
37 | O=C(NC1CC2CCCC(C1)N2S(=O)(=O)c1ccccc1)c1ccccc1 (stereo unspecified) | 14.1 µM [rising, partial curve] | 14.1 µM [rising, partial curve]
38 | CN(C)/N=C/c1ccc(Sc2ccc([N+](=O)[O-])cc2[N+](=O)[O-])o1 |  | 31.6 µM [rising, single point]
39 | C=CCn1c(C)cc(C(=O)CSc2nnc(NCc3ccccc3)s2)c1C | 22.4 µM [rising, partial curve, poor fit] | 0.355 µM [rising, partial curve]
40 | CCOc1ccc2c(c1)s/c(=N\S(=O)(=O)c1ccc(OC)cc1)n2C(F)F | 8.91 µM [rising, partial curve] | 12.6 µM [rising, partial curve]
41 | CCCCCCCOC(=O)C[N+](C)(C)CCOC1CC2CCC1(C)C2(C)C (stereo unspecified) |  | 14.1 µM [rising, single point]
42 | CCCCn1c(Oc2cccc(C(=O)OC)c2)nc2c1c(=O)n(C)c(=O)n2C |  | 0.01 µM [falling, full curve, poor fit]
43 | COc1cccc(NC(=O)CSc2nc3c(sc4ccccc43)c(=O)n2CCN(C)C)c1 |  | 20 µM [falling, partial curve, poor fit]
44 | CN1c2ccsc2C(O)=C(C(=S)Nc2ccc(F)c(Cl)c2)S1(=O)=O |  | 11.2 µM [rising, partial curve]
45 | CSc1nc(Cl)c(Cc2ccc(OCC(C)C)cc2)c(N2CCOCC2)n1 |  | 20 µM [rising, single point]
46 | CCC(C(=O)OCC(=O)Nc1cc(OC)ccc1OC)c1ccccc1 (stereo unspecified) | 0.00447 µM [falling, full curve, poor fit] | 
47 | CCN1C(=O)/C(=C\c2ccc(-c3ccc([N+](=O)[O-])cc3OC)o2)SC1=Nc1cccc(C(=O)O)c1 | 35.5 µM [falling, single point] | 
48 | C=CCSc1nc2sc3c(c2c(=O)[nH]1)CCC3 | 35.5 µM [rising, partial curve, poor fit] | 12.6 µM [rising, partial curve]
49 | COCc1cc(=O)[nH]c(Nc2nc3ccc(C)cc3o2)n1 | 5.62 µM [rising, full curve] | 3.98 µM [rising, full curve]
50 | O=C(/C=C/c1ccc(F)cc1)NC(=S)Nc1ccccc1C(=O)NC1CCCCC1 | 14.1 µM [falling, single point] | 14.1 µM [falling, single point]
51 | Cc1nc(N2CCC(C(N)=O)CC2)c2c(-c3cccs3)csc2n1 |  | 5.62 µM [falling, partial curve, poor fit]
52 | O=C(Oc1ccc(Nc2ncnc3ccccc23)cc1)c1cccnc1 | 31.6 µM [falling, partial curve] | 
53 | Cc1cc(C)c2nc(C(F)(F)F)nc(N3CC(C)OC(C)C3)c2c1 (stereo unspecified) | 31.6 µM [rising, single point] | 
54 | COc1cc(Br)cc(CN2CCN(C/C=C/c3ccccc3)CC2)c1O | 31.6 µM [rising, single point] | 31.6 µM [rising, single point]
55 | CCOc1cc(CNC(=O)c2ccc(NC(=O)c3nsc4ccccc34)cc2)ccc1OC |  | 3.16 µM [falling, full curve, poor fit]
